# Test results from PubChem BioAssay AID2685 (National Center for Advancing Translational Sciences (NCATS), 2010).
# The other results are listed elsewhere or left out. Further columns of the screen follow, without active or inactive calls. Most of these compounds were active or inconclusive in the main read-out, so they are no random draw. Potencies come from curve fits of mixed quality, noted in brackets.
# Assay: qHTS Assay for Lipid Storage Modulators in Drosophila S3 Cells;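 as to cell number change: cells counted by Cell Tracker Red CMTPX staining in the red channel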
# Settings: BODIPY lipid droplet fluorescence, 18-24 h; for cell number change: measured here: cell count max response, cells fed with added oleic acid
# Procedure, shortened: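 Drosophila S3 cells loaded with oleic acid (400 uM, as added) and compounds at several concentrations; lipid droplets imaged by 488-nm laser-scanning cytometry, 500–530 nm intensity and object ratio to cell channel. Percent activity normalized to 20 uM Triacsin C.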
# [1] = measured here: lipid fluorescence (Fed channel) AC50, cells fed with added oleic acid
# [2] = measured here: cell number channel AC50, cells fed with added oleic acid
SMILES,cell number change [%],AC50 [1],AC50 [2]
C=C(C(=O)Nc1ccccc1)c1ccc(C)cc1,-28.6,–,–
O=C(O)c1ccccc1Cc1nc2cc(Cl)ccc2c(=O)[nH]1,-43.3,–,–
Nc1cccc(CCc2nc3ccccc3[nH]2)c1,17.9,"6.51 µM [rising, single point]",–
Cc1ccc(NC(=O)CN(C)C(=O)Cc2ccc3c(c2)CCC3)cc1,70.3,–,"29.1 µM [rising, single point]"
S=C(c1ccc(-c2ccc(Br)cc2)o1)N1CCCCC1,16.6,"8.2 µM [rising, partial curve]",–
Cc1cccc(C)c1NC(=S)NCCCN1CCCC1=O,–,"0.517 µM [falling, full curve]",–
CCN=c1scc(-c2ccc3c(c2)NC(=O)CO3)n1N=C1CCCC1,-18.7,"29.1 µM [falling, single point]",–
CSc1nc2ccc(NC(=O)c3nn(C(C)C)c(=O)c4ccccc34)cc2s1,5.54,–,–
CCN(CC)c1nc2c(c(=O)n(C)c(=O)n2C)n1CC(=O)c1ccccc1,4.06,"0.231 µM [rising, full curve, poor fit]",–
C=CCNC(=O)c1ccccc1NC(=O)C1COc2ccccc2O1 (configuration not stated),11.7,"29.1 µM [falling, single point]",–
COc1ccccc1N(C)S(=O)(=O)c1ccc(C(=O)Nc2nccs2)cc1,-40.5,"16.4 µM [falling, partial curve, poor fit]","18.4 µM [falling, partial curve]"
Cc1ccc(-n2cc(C(=O)c3ccccc3O)cn2)cc1,10.6,–,–
CCOC(=O)C1=C2c3ccc4ccccc4c3CC(C)(C)N2C(=O)C1=O,4.6,–,"6.51 µM [rising, single point]"
O=C(CCCn1c(SCC(=O)Nc2ccccc2C(F)(F)F)nc2ccccc2c1=O)NCC1CCCO1 (configuration not stated),30.5,–,"16.4 µM [rising, single point]"
Cc1cc(C)nc(N/N=C/c2sccc2C)n1,-38.2,–,–
O=C(COc1ccccc1F)NNC(=O)c1ccc(N2CCCCC2)c([N+](=O)[O-])c1,-6.61,"0.731 µM [rising, single point]","6.51 µM [rising, single point]"
CSc1ccc(CN2CCC(N3CC(C)OC(C)C3)CC2)cc1 (configuration not stated),19.7,"0.231 µM [rising, full curve, poor fit]",–
Fc1ccc(CNc2ccccn2)cc1,13.2,"0.13 µM [rising, full curve, poor fit]",–
COC(=O)Nc1ncc(CN2CCCCC2)s1,-103,–,"23.1 µM [falling, partial curve]"
CC(=O)c1ccc(OCC(O)COc2ccc(C(C)=O)cc2)cc1,–,"6.51 µM [rising, single point]","6.51 µM [rising, single point]"

SMILES,cell number change [%],AC50 [1],AC50 [2]
O=C1c2ccccc2C(=O)N1CCc1csc(-c2cccc(F)c2)n1,142,"13 µM [rising, partial curve]","11.6 µM [rising, partial curve]"
Cc1ccc(NC(=O)CSc2nc3ccccc3c(=O)n2CCCN2CCCCC2)cc1C,-29.9,"14.6 µM [falling, partial curve]",–
COc1ccc(N2CCN(C(=O)CCS(=O)(=O)c3ccc4c(c3)NC(=O)C(C)S4)CC2)cc1 (configuration not stated),4.89,"6.51 µM [rising, single point]",–
COc1ccc(NC(=O)c2ccc(NC(=O)C(C)C)cc2)c([N+](=O)[O-])c1,6.11,"0.146 µM [rising, full curve, poor fit]",–
Clc1ccc(/C(Cc2nc3ccccc3[nH]2)=N\Nc2ccccc2)cc1,-45,"18.4 µM [falling, partial curve]","25.9 µM [falling, single point]"
COc1cc(Cl)c(C)cc1NC(=O)CSc1nnc(-c2ccco2)n1CC(C)C,-20.3,"9.2 µM [rising, single point]",–
COc1ccc(S(=O)(=O)NCc2ccco2)cc1C(=O)N1CCCCC1,-2.63,"0.112 µM [falling, full curve, poor fit]",–
CN(C)C(CNC(=O)CCNS(=O)(=O)c1ccccc1C(F)(F)F)c1ccccc1 (configuration not stated),8.03,–,–
C=CCn1c(Oc2ccccc2)nc2c1c(=O)n(C)c(=O)n2C,2.14,"0.164 µM [falling, full curve, poor fit]",–
CN1CCN(C(=O)c2cc(COc3ccccc3)on2)[C@@H](c2ccccc2)C1,25,–,"0.731 µM [rising, full curve, poor fit]"
Clc1ccc(-c2nsc(N3CCOCC3)n2)c(Cl)c1,9.13,–,–
CCCCCC(=O)NNC(=O)c1c(O)c2ccccc2n(CC)c1=O,-19.7,"32.6 µM [falling, single point]",–
COc1ccc([N+](=O)[O-])cc1NC(=O)c1ccc(CN(c2ccc(C)c(C)c2)S(C)(=O)=O)cc1,11.8,"0.00411 µM [rising, full curve, poor fit]",–
NC1=NC(=O)CC(C(=O)NCc2ccccc2)S1 (configuration not stated),-19,"4.61 µM [falling, partial curve]","6.51 µM [falling, single point]"
CCNC(=S)NNC(=O)CSc1nc2ccccc2[nH]1,43.9,–,"2.31 µM [rising, full curve, poor fit]"
CCOC(=O)N1CCN(c2c(NCCCN(CC)c3cccc(C)c3)c(=O)c2=O)CC1,-6.83,"0.231 µM [rising, full curve, poor fit]",–
Cc1cccc(OC(C)C(=O)Nc2ccc(S(=O)(=O)N3CCCC3)cc2)c1 (configuration not stated),-20.2,"29.1 µM [falling, single point]",–
Cc1cc(C)c(NC(=O)COC(=O)Cc2ccsc2)c(C)c1,22.5,–,"0.00651 µM [rising, full curve, poor fit]"
Cc1ccc(C(=O)NCC(=O)O)o1,-37.1,"23.1 µM [falling, partial curve, poor fit]",–
COc1cc(/C=C2\SC(=S)N(CC(=O)O)C2=O)ccc1OC(=O)c1ccco1,-88.6,"6.51 µM [rising, partial curve]","5.8 µM [falling, full curve]"

SMILES,cell number change [%],AC50 [1],AC50 [2]
O=C(c1cccc(S(=O)(=O)N2CCCCC2)c1)N(CCc1ccccc1)Cc1ccccc1,32.8,"7.31 µM [rising, partial curve]","6.51 µM [rising, partial curve]"
CCC(CC)NC(=O)c1cccc(Br)c1,22.5,"0.291 µM [falling, partial curve, poor fit]",–
CC(=O)N1N=C(c2ccc3ccccc3c2)OC1(C)C,-14.1,"29.1 µM [rising, single point]",–
CC(C)(C)c1ccc(OCCNC(=O)Cc2ccc(F)cc2)cc1,27.7,"16.4 µM [rising, partial curve]",–
O=C(COc1ccc(/C=C2/NC(=O)NC2=O)cc1)Nc1ccc(F)cc1,30.3,–,–
CSc1nc2n(n1)C(C)C1=C(CCCC1=O)N2 (configuration not stated),-16.6,"1.84 µM [falling, partial curve]",–
COc1ccccc1NS(=O)(=O)c1cc(NC(=O)C2=NNC(=O)CC2)ccc1C,-39.7,"1.16 µM [falling, partial curve]","29.1 µM [falling, partial curve, poor fit]"
O=S(=O)(Nc1ccccc1F)c1ccc2nsnc2c1,15,"0.731 µM [rising, full curve, poor fit]",–
O=C(COC(=O)c1ccc(C(F)(F)F)cc1)NC(=O)NC1CCCC1,-49.3,"18.4 µM [falling, single point]","5.17 µM [falling, partial curve, poor fit]"
Cc1cc(F)ccc1S(=O)(=O)N1CCCOC1CNC(=O)C(=O)NCc1ccc2c(c1)OCO2 (configuration not stated),68.4,"9.2 µM [rising, partial curve]","25.9 µM [rising, single point]"
Cc1ccc(S(=O)(=O)N2CCN=C2c2ccccc2)cc1C,28.9,"13 µM [rising, partial curve]",–
CSc1ncccc1C(=O)OCC(=O)NC1CCS(=O)(=O)C1 (configuration not stated),-65.4,"29.1 µM [falling, single point]","16.4 µM [falling, single point]"
COc1ccc(CNC(=O)CSc2cccc3cccnc23)cc1,11.2,–,"6.51 µM [rising, single point]"
COc1ccc(/C=N/Nc2cc(C)nc3ccccc23)cc1,-54.9,"6.51 µM [falling, single point]","9.2 µM [falling, partial curve]"
COc1ccc(NC(=O)CC2C(=O)NCCN2C(=O)c2ccccc2)cc1 (configuration not stated),-4.95,"0.517 µM [falling, full curve]",–
Cc1ccc2[nH]c(O)c(N=Nc3ccccc3C)c2c1,38.7,–,"0.0291 µM [rising, full curve, poor fit]"
CCC(C)/C(C)=N/NC(=O)c1ccc(COc2ccc(Cl)c(C)c2)cc1 (configuration not stated),10.5,"18.4 µM [rising, partial curve, poor fit]",–
Cc1ccnn1C(C)C(=O)O (configuration not stated),–,"0.116 µM [falling, partial curve, poor fit]","0.0366 µM [falling, full curve, poor fit]"
CCOC(=O)c1c(CN2CCC(C)CC2)oc2ccc(OC)cc12,-52.3,"14.6 µM [falling, partial curve]","9.2 µM [falling, partial curve]"

# An excerpt taken from the entries so far, for reference:
SMILES,cell number change [%],AC50 [1],AC50 [2]
CCC(C)/C(C)=N/NC(=O)c1ccc(COc2ccc(Cl)c(C)c2)cc1 (configuration not stated),10.5,"18.4 µM [rising, partial curve, poor fit]",–
Cc1ccnn1C(C)C(=O)O (configuration not stated),–,"0.116 µM [falling, partial curve, poor fit]","0.0366 µM [falling, full curve, poor fit]"
CCOC(=O)c1c(CN2CCC(C)CC2)oc2ccc(OC)cc12,-52.3,"14.6 µM [falling, partial curve]","9.2 µM [falling, partial curve]"
